In patent US20210214421A1 (priority 2018, published 2021):
For at least one compound, name, drawing or mass did not settle the structure.

Legend:
IL-13 = assay type: cell-based, dog
TNFα = assay type: cell-based, dog

## CCC[C@@H]1C[C@@H](C(=O)N[C@@H]([C@H]2O[C@H](SC)[C@H](O)[C@@H](O)[C@H]2O)[C@H](C)Cl)N(C)C1 [clindamycin]
IL-13
  expression of IL-13: upregulated the production
TNFα
  expression of TNFα: lowered the expression to a higher extend
